Experimental data from patent publication US8889631B2, “Disruptors of early/recycling endosomes” (The University of Kansas, priority 2008, dated 2014).
At least one structure is not confirmed: it was looked up by name or label, or the drawing left a doubt. Square brackets hold non-standard residues; d marks the D form. Peptide text beside a SMILES is read from it. * marks the point of attachment. Pentanoyl(5-NH-cholesteryl) = CC(C)CCC[C@@H](C)[C@H]1CC[C@H]2[C@@H]3CC=C4C[C@@H](NCCCCC(=O)*)CC[C@]4(C)[C@H]3CC[C@]12C; Ahx = NCCCCCC(=O)O

How the values were obtained:
CHO cells [1] = test: Dose dependence of endosomal escape quantified by flow cytometry, CHO cells; type: cell-based, Chinese hamster; conditions: Compound 3 (5 μM) with increased amounts of Compound 1, or Compound 5 at 8 micromolar, 24 h, 37° C.
Procedure: (§1) Cellular fluorescence was analyzed by flow cytometry.
(§2) Analyses were performed with a Beckman-Coulter XL-MCL bench-top flow cytometer. Forward-scatter (FS) and side-scatter (SSC) dot plots afforded cellular physical properties of size and granularity that allowed gating of live cells. After gating, 10,000 cells were counted. In studies of endosomal release of fluorescein derivative Compound 6 mediated by Compound 1, the fluorophore was excited at 488 nm with a 15 mW air-cooled argon-ion laser, the emission was split with a 550 nm dichroic and filtered through a 510 nm long pass filter and 530/30-nm band pass filter using the XL-MCL cytometer. The PMT voltage for this instrument was set to 501 for Jurkat cells and 524 for CHO cells.

CHO cells [2] = test: Release of fluorescent cargo from early/recycling endosomes, confocal microscopy, CHO cells; type: cell-based, Chinese hamster; conditions: Compound 3 (5 μM) and Compounds 1, 2, or 5 (8 μM) for 24 h
Procedure: (§3) FIG. 4A-4J show confocal fluorescence and DIC micrographs of living cells treated with fluorescent probes. FIGS. 4A-4F show CHO cells were treated with Compound 3 or Compound 4 (5 μM) and Compounds 1, 2, or 5 (8 μM) for 24 h. In FIG. 4F, [chloroquine]=5 μM. In FIGS. 4G-4J, Jurkat lymphocytes were treated with Compound 3 or Compound 4 (2.5 μM) and Compound 1 or Compound 5 (2 μM) for 12 h.
(§4) A Zeiss LSM 5 Pascal confocal laser-scanning microscope fitted with a Plan Apochromat objective (63×) was employed. Fluorescein and Alexa Fluor-488 were excited with a 488 nm Argon ion laser (25 mW, 1% laser power) and emitted photons were collected through 505 nm LP filter. Excitation of 6-Hex, Texas Red, and DiI employed a 543 nm HeNe laser and emitted photons were collected through a 560 nm LP filter.

Jurkat lymphocytes [3] = test: Release of fluorescent cargo from early/recycling endosomes, confocal microscopy, Jurkat lymphocytes; type: cell-based, human; conditions: Compound 3 (2.5 μM) and disruptor (2 μM) for 12 h
Procedure: as §3
Jurkat cells were treated with green fluorescent Compound 3 (2.5 μM) and red fluorescent Compound 2 (2 μM) for 12 h at 37° C. In FIG. 9B, bafilomycin A1 (1 μM), a vacuolar H^+ ATPase inhibitor that blocks acidification of endosomes, was added. FIG. 9A is without bafilomyin. Cells were washed with media and imaged by DIC and confocal laser scanning microscopy.
as §4

Jurkat lymphocytes [4] = test: Dose dependence of endosomal escape quantified by flow cytometry, Jurkat lymphocytes; type: cell-based, human; conditions: Compound 3 (2.5 μM) with increased amounts of Compound 1, or Compound 5 at 8 micromolar, 12 h, 37° C.
Procedure: as §1, §2

In the case of `CC(C)CCC[C@@H](C)[C@H]1CC[C@H]2[C@@H]3CC=C4C[C@@H](NCCCCC(=O)N[C@@H](CCC(=O)O)C(=O)N[C@@H](CCC(=O)O)C(=O)NCCCCCC(=O)NCCCCCC(=O)N[C@@H](CO)C(=O)N[C@@H](CO)C(=O)N[C@@H](C)C(=O)N[C@@H](Cc5c[nH]c6ccccc56)C(=O)N[C@@H](Cc5c[nH]c6ccccc56)C(=O)N[C@@H](CO)C(=O)N[C@@H](Cc5ccc(O)cc5)C(=O)N[C@@H](Cc5c[nH]c6ccccc56)C(=O)N5CCC[C@H]5C(=O)N5CCC[C@H]5C(=O)N[C@H](C(=O)N[C@@H](C)C(N)=O)C(C)C)CC[C@]4(C)[C@H]3CC[C@]12C` [Compound 1, N-[6-({6-[(N-{5-(3β-Cholest-5-en-3-ylammonio)pentanoyl}-5-oxidanidyl-5-oxidanylidene-L-norvalyl-5-oxidanidyl-5-oxidanylidene-L-norvalyl)amino]hexanoyl}amino)hexanoyl]-L-seryl-L-seryl-L-alanyl-L-tryptophyl-L-tryptophyl-L-seryl-L-tyrosyl-L-tryptophyl-L-prolyl-L-prolyl-L-valyl-L-alaninamide] ({Pentanoyl(5-NH-cholesteryl)}-EE[Ahx][Ahx]SSAWWSYWPPVA-NH2), the “cellular fluorescence (endosomal escape) by flow cytometry” value (CHO cells [1]) was “increased fluorescence”, the “release of green fluorescence of Compound 3 from early/recycling endosomes by the endosome disruptor” value (CHO cells [2]) was “fluorescence was observed in the cytosol and nucleus” and the “release of green fluorescence of Compound 3 from early/recycling endosomes by the endosome disruptor” value (Jurkat lymphocytes [3]) was “fluorescence was observed in the cytosol and nucleus”. For the same compound, the “cellular fluorescence (endosomal escape) by flow cytometry” value (Jurkat lymphocytes [4]) was “increased fluorescence”.
